Data: the supplement of paper PMC10331698
± gives the standard deviation of the averaged measurements. Most values lie at the level of the controls, where differences are scatter.

Experiments:
Assay in all cases: level (log10 ratio to DMSO vehicle control); higher = higher biomarker level / cell amount than vehicle control
[1] = compound: C=CC(=O)OCC(F)(F)C(F)(F)C(F)(F)COC(=O)C=C [1H,1H,5H,5H-Perfluoro-1,5-pentanediol diacrylate]; conditions: 2200 nM; in DMSO
Experimental: (§1)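 BioMAP Diversity Plus panel of 12 human primary cell co-culture systems (3C, 4H, LPS, SAg, BT, BF4T, BE3C, CASM3C, HDF3CGF, KF3CT, MyoF, Mphg). Compounds were added 1 h before stimulation and left for 24 h (MyoF 48 h; BT 72 h for soluble read-outs or 6 d for IgG). Biomarkers were read by ELISA, cytotoxicity by SRB, PBMC viability and proliferation by Alamar Blue. Each well value was divided by the mean of 8 DMSO control wells on the same plate and log10 transformed; duplicate blinded samples were tested at 4 concentrations.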

[2] = compound: C=CC(=O)OCCC(F)(F)C(F)(F)C(F)(F)C(F)(F)C(F)(F)C(F)(F)C(F)(F)C(F)(F)F [8:2 Fluorotelomer acrylate]; conditions: 2200 nM; in DMSO
Experimental: as §1

[3] = compound: C=CC(=O)OCCC(F)(F)C(F)(F)C(F)(F)C(F)(F)F [2-(Perfluorobutyl)ethyl acrylate]; conditions: 2200 nM; in DMSO
Experimental: as §1

[4] = compound: FC(F)(F)C(F)(C(F)(F)F)C(F)(F)C(F)(F)CC1CO1 [3-(Perfluoro-3-methylbutyl)-1,2-propenoxide]; conditions: in DMSO
Experimental: as §1

[5] = compound: FC(F)(F)C(F)(F)C(F)(F)C(F)(F)C(F)(F)C(F)(F)I [Perfluoro-1-iodohexane]; conditions: in DMSO
Experimental: as §1

[6] = compound: FC(F)(I)C(F)(F)C(F)(F)C(F)(F)C(F)(F)C(F)(F)I [1,6-Diiodoperfluorohexane]; conditions: 2200 nM; in DMSO
Experimental: as §1

[7] = compound: O=C(Cl)C(F)(F)C(F)(F)C(F)(F)C(=O)Cl [Hexafluoroglutaryl chloride]; conditions: 2200 nM; in DMSO
Experimental: as §1

[8] = compound: O=C(O)C(F)(F)C(F)(F)C(F)(F)C(F)(F)C(F)(F)C(F)(F)C(F)(F)C(F)(F)C(F)(F)C(F)(F)C(F)(F)C(F)(F)C(F)(F)F [Perfluorotetradecanoic acid]; conditions: in DMSO
Experimental: as §1

[9] = compound: O=C(O)C=C(C(F)(F)F)C(F)(F)F [3,3-Bis(trifluoromethyl)-2-propenoic acid]; conditions: in DMSO
Experimental: as §1

[10] = compound: O=S(=O)(O)C(F)(F)C(F)(F)C(F)(F)C(F)(F)C(F)(F)C(F)(F)F [Perfluorohexanesulfonic acid]; conditions: 2200 nM; in DMSO
Experimental: as §1

[11] = compound: O=S(=O)(O)CCC(F)(F)C(F)(F)C(F)(F)C(F)(F)F [4:2 Fluorotelomer sulfonic acid]; conditions: 2200 nM; in DMSO
Experimental: as §1

[12] = compound: OCC(F)(F)C(F)(F)C(F)(F)CO [Hexafluoroamylene glycol]; conditions: 2200 nM; in DMSO
Experimental: as §1

[13] = compound: OCCCC(F)(F)C(F)(F)C(F)(F)C(F)(F)C(F)(F)C(F)(F)C(F)(F)F [7:3 Fluorotelomer alcohol]; conditions: 2200 nM; in DMSO
Experimental: as §1

Test System	level (log10) [1]	level (log10) [2]	level (log10) [3]	level (log10) ([4]; 740 nM)	level (log10) ([4]; 2200 nM)	level (log10) ([5]; 2200 nM)	level (log10) ([5]; 6700 nM)	level (log10) ([5]; 20000 nM)	level (log10) ([5]; 60000 nM)	level (log10) [6]	level (log10) [7]	level (log10) ([8]; 740 nM)	level (log10) ([8]; 2200 nM)	level (log10) ([9]; 2200 nM)	level (log10) ([9]; 6700 nM)	level (log10) ([9]; 20000 nM)	level (log10) ([9]; 60000 nM)	level (log10) [10]	level (log10) [11]	level (log10) [12]	level (log10) [13]
BF4T:CD106/VCAM-1	-0.0185 ± 0.025	-0.0025 ± 0.081	-0.0095 ± 0.063	0.0025 ± 0.069	0 ± 0.05	0.029 ± 0.0099	-0.0055 ± 0.0035	-0.0215 ± 0.0035	-0.0745 ± 0.019	-0.0005 ± 0.0092	0.007 ± 0.044	0.0255 ± 0.005	-0.003 ± 0.014	-0.0335 ± 0.057	-0.0755 ± 0.0064	-0.0945 ± 0.005	-0.047 ± 0.067	0.0185 ± 0.054	0.012 ± 0.045	0.0325 ± 0.079	0.0115 ± 0.076
BT:Secreted IgG	-0.02 ± 0.034	0.001 ± 0.021	-0.0165 ± 0.011	0.034 ± 0.03	0.0415 ± 0.016	0.0135 ± 0.0035	0.0195 ± 0.023	-0.0165 ± 0.043	-0.0315 ± 0.081	0.005 ± 0.014	-0.0025 ± 0.016	-0.0025 ± 0.035	-0.022 ± 0.023	0.0235 ± 0.016	0.0155 ± 0.005	-0.0375 ± 0.052	-0.597 ± 0.16	0.0125 ± 0.011	-0.011 ± 0.045	0.01 ± 0.041	-0.01 ± 0.048
BF4T:CD90	-0.013 ± 0.021	-0.0085 ± 0.0078	-0.006 ± 0.013	-0.01 ± 0.0042	-0.0105 ± 0.016	0.007 ± 0.0071	-0.0085 ± 0.0035	-0.002 ± 0.018	-0.002 ± 0.011	0.0065 ± 0.039	-0.0035 ± 0.0021	-0.0015 ± 0.0035	-0.006 ± 0.0042	0.0095 ± 0.043	-0.0205 ± 0.011	-0.022 ± 0.0042	-0.0235 ± 0.019	0.001 ± 0.02	0.0045 ± 0.019	-0.0095 ± 0.018	0.004 ± 0.014
BF4T:tPA	0.013 ± 0.04	-0.0245 ± 0.066	0.0065 ± 0.03	0.0115 ± 0.021	0.0105 ± 0.016	-0.0045 ± 0.026	0.0015 ± 0.005	-0.0065 ± 0.018	0.036 ± 0.047	0.01 ± 0.027	0.0055 ± 0.023	0.0395 ± 0.022	0.0035 ± 0.005	-0.06 ± 0.035	-0.0965 ± 0.035	-0.12 ± 0.026	-0.11 ± 0.029	0.014 ± 0.041	0.0015 ± 0.035	-0.002 ± 0.054	0.005 ± 0.011
SAg:PBMC Cytotoxicity	-0.033 ± 0.045	0.0065 ± 0.005	0.0085 ± 0.043	0.019 ± 0.011	-0.0215 ± 0.00071	0.0075 ± 0.012	-0.025 ± 0.023	-0.014 ± 0.0014	-0.024 ± 0.028	0.0015 ± 0.018	0.024 ± 0.025	-0.0035 ± 0.043	-0.04 ± 0.041	-0.009 ± 0.038	-0.01 ± 0.0028	-0.021 ± 0.016	0.002 ± 0.03	0.043 ± 0.089	0.0245 ± 0.046	0.04 ± 0.016	0.0005 ± 0.0092
BE3C:tPA	-0.002 ± 0.05	-0.0025 ± 0.064	-0.0055 ± 0.046	0.0115 ± 0.071	-0.006 ± 0.03	0.0105 ± 0.043	-0.008 ± 0.028	-0.008 ± 0.023	0.0125 ± 0.028	-0.031 ± 0.0014	0.015 ± 0.011	0.0435 ± 0.019	0.046 ± 0.095	-0.0965 ± 0.079	-0.16 ± 0.041	-0.166 ± 0.0042	-0.179 ± 0.073	-0.015 ± 0.017	-0.0095 ± 0.021	-0.0025 ± 0.023	-0.048 ± 0.024
